Measured values reported in publication PMC8208791.
No constants are given. Whether binding was seen depends on the method and setting. Some binding calls cover weakened binding; strength is not graded here.

Target: T1, Mms21 (S. cerevisiae) (UniProt P38632)
T1 sequence: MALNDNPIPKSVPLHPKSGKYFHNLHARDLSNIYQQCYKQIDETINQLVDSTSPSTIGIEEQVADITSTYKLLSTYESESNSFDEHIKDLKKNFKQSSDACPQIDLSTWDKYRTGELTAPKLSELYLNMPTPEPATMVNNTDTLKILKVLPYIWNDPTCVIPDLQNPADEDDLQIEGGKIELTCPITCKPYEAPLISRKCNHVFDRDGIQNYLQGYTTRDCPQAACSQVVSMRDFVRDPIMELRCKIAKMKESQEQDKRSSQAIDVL
Experiment: two-hybrid; bait (J 965), prey (J 1493) and reporter (J 359) plasmids in strain JC 1280; 6 h in 2% glucose or 2% galactose at 30°C; beta-galactosidase activity with ONPG, OD420 normalised to OD600

binding: binds
B1: Csm1 (protein, UniProt P25651 1-190)
chain: MDPLTVYKNSVKQQIDSADLLVANLVNENFVLSEKLDTKATEIKQLQKQIDSLNAQVKELKTQTSQQAENSEVIKDLYEYLCNVRVHKSYEDDSGLWFDISQGTHSGGSSDDYSIMDYKLGFVKGQAQVTEVIYAPVLKQRSTEELYSLQSKLPEYLFETLSFPLSSLNQFYNKIAKSLNKKREKKDETE
